In patent publication US20060257938A1, “Method of screening for drugs that block ligand binding to a lipid binding protein” (priority 2005, published 2006):
Residue numbers refer to the chain shown, from its start.

B1: 47C3, L72A (protein, listed as Rattus norvegicus)
chain: AFDGTWKVDRNENYEKFMEKMGINVVKRKLGAHDNLKLTITQEGNKCTVKESSNFRNIDVVFELGVDFAYSAADGTELTGTWTMEGNKLVGKFKRVDNGKELIAVREISGNELIQTYTYEGVEAKRIFKKE
modifications: PEPTIDE (1)...(131) wild-type rat intestinal fatty acid binding protein
B2: 38W1, 72A (protein, listed as Rattus norvegicus)
chain: B1 chain with L38W, C47F
modifications: PEPTIDE (1)...(131) wild-type rat intestinal fatty acid binding protein
B3: 38Q1, 72A (protein, listed as Rattus norvegicus)
chain: B1 chain with L38Q, C47F
modifications: PEPTIDE (1)...(131) wild-type rat intestinal fatty acid binding protein
B4: 38V2, 72A (protein, listed as Rattus norvegicus)
chain: B1 chain with L38V, C47F
modifications: PEPTIDE (1)...(131) wild-type rat intestinal fatty acid binding protein
B5: 38T3, 72A (protein, listed as Rattus norvegicus)
chain: B1 chain with L38T, C47F
modifications: PEPTIDE (1)...(131) wild-type rat intestinal fatty acid binding protein
B6: 47A1, L72A (protein, listed as Rattus norvegicus)
chain: B1 chain with C47A
modifications: PEPTIDE (1)...(131) wild-type rat intestinal fatty acid binding protein
B7: 38S1, 72A (protein, listed as Rattus norvegicus)
chain: B1 chain with L38S, C47F
modifications: PEPTIDE (1)...(131) wild-type rat intestinal fatty acid binding protein
B8: 38N1, 72A (protein, listed as Rattus norvegicus)
chain: B1 chain with L38N, C47F
modifications: PEPTIDE (1)...(131) wild-type rat intestinal fatty acid binding protein
B9: 40F2, L72A (protein, listed as Rattus norvegicus)
chain: B1 chain with I40F, C47F
modifications: PEPTIDE (1)...(131) wild-type rat intestinal fatty acid binding protein
B10: 38H1, 72A (protein, listed as Rattus norvegicus)
chain: B1 chain with L38H, C47F
modifications: PEPTIDE (1)...(131) wild-type rat intestinal fatty acid binding protein
B11: 38I3, 72A (protein, listed as Rattus norvegicus)
chain: B1 chain with L38I, C47F
modifications: PEPTIDE (1)...(131) wild-type rat intestinal fatty acid binding protein
B12: 40Y3, L72A (protein, listed as Rattus norvegicus)
chain: B1 chain with I40Y, C47F
modifications: PEPTIDE (1)...(131) wild-type rat intestinal fatty acid binding protein
B13: 38G1, 72A (protein, listed as Rattus norvegicus)
chain: B1 chain with L38G, C47F
modifications: PEPTIDE (1)...(131) wild-type rat intestinal fatty acid binding protein
B14: 40V1, L72A (protein, listed as Rattus norvegicus)
chain: B1 chain with I40V, C47F
modifications: PEPTIDE (1)...(131) wild-type rat intestinal fatty acid binding protein
B15: 38K1, 72A (protein, listed as Rattus norvegicus)
chain: B1 chain with L38K, C47F
modifications: PEPTIDE (1)...(131) wild-type rat intestinal fatty acid binding protein
B16: 38Y1, 72A (protein, listed as Rattus norvegicus)
chain: B1 chain with L38Y, C47F
modifications: PEPTIDE (1)...(131) wild-type rat intestinal fatty acid binding protein
B17: 36Q, 72A (protein, listed as Rattus norvegicus)
chain: B1 chain with L36Q, C47F
modifications: PEPTIDE (1)...(131) wild-type rat intestinal fatty acid binding protein
B18: 102P, 72A (protein, listed as Rattus norvegicus)
chain: B1 chain with C47F, L102P
modifications: PEPTIDE (1)...(131) wild-type rat intestinal fatty acid binding protein
B19: 102Q, 72A (protein, listed as Rattus norvegicus)
chain: B1 chain with C47F, L102Q
modifications: PEPTIDE (1)...(131) wild-type rat intestinal fatty acid binding protein
B20: 38E1, 72A (protein, listed as Rattus norvegicus)
chain: B1 chain with L38E, C47F
modifications: PEPTIDE (1)...(131) wild-type rat intestinal fatty acid binding protein
B21: 36R, 72A (protein, listed as Rattus norvegicus)
chain: B1 chain with L36R, C47F
modifications: PEPTIDE (1)...(131) wild-type rat intestinal fatty acid binding protein
B22: 38A2, 72A (protein, listed as Rattus norvegicus)
chain: B1 chain with L38A, C47F
modifications: PEPTIDE (1)...(131) wild-type rat intestinal fatty acid binding protein
B23: 36Y, 72A (protein, listed as Rattus norvegicus)
chain: B1 chain with L36Y, C47F
modifications: PEPTIDE (1)...(131) wild-type rat intestinal fatty acid binding protein
B24: 36S, 72A (protein, listed as Rattus norvegicus)
chain: B1 chain with L36S, C47F
modifications: PEPTIDE (1)...(131) wild-type rat intestinal fatty acid binding protein
B25: 38F1, 72A (protein, listed as Rattus norvegicus)
chain: B1 chain with L38F, C47F
modifications: PEPTIDE (1)...(131) wild-type rat intestinal fatty acid binding protein

Test: Baseline fluorescence ratio Ro of probe in absence of analyte
Settings: average baseline fluorescence ratio Ro of the clone probe; substitutions with respect to SEQ ID NO: 2

Molecule | AvgOfRo
B1 | 0.24
B2 | 0.23
B3 | 0.26
B4 | 0.21
B5 | 0.30
B6 | 0.29
B7 | 0.32
B8 | 0.50
B9 | 0.20
B10 | 0.27
B11 | 0.19
B12 | 0.22
B13 | 0.34
B14 | 0.21
B15 | 0.26
B16 | 0.21

Same assay, conditions: baseline fluorescence ratio of probe, no fatty acid

Molecule | AvgOfRo | Ro
B17 | 0.30 | 0.247
B18 | 0.34 | 
B19 | 0.34 | 
B20 | 0.24 | 
B21 | 0.30 | 
B22 | 0.32 | 
B23 | 0.24 | 
B24 | 0.31 | 
B25 | 0.19 | 
